Experimental data published in US12570957B2, “Isolated naive pluripotent stem cells and methods of generating same” (Yeda Research and Development Co. Ltd., priority 2013, dated 2026).
At least one structure is not confirmed: it was looked up by name or label, or the drawing left a doubt.

Key:
naive hESCs/hiPSCs = test: Pluripotency maintenance after supplementation of inhibitors or growth factors; format: cell-based; conditions: naive human cells in WIS-NHSM
Description: (§1) Shown are histograms depicting colony formation of pluripotent cell lines in various media. Cell populations were equally divided and plated on gelatin/vitronectin coated plates in the indicated growth medium in which these cell lines are normally maintained (mouse naive cells in a medium containing 2i/LIF, naive hESCs/iPSCs in a WIS-NHSM medium, mouse EpiSCs and human primed ESCS/iPSCs in a KSR/bFGF/TGFβmedium). 36 hours later the wells were supplemented with the indicated inhibitors or growth factors. After 14 days (2 passages), wells were analyzed for Oct4-GFP pluripotency marker expression by FACS, to determine the relative percentage of pluripotent colonies. Pluripotent cell frequency was normalized to an internal control, as indicated by “Growth medium” only on the far left column (For naive cells growth medium was WIS-NHSM, and for primed cells was conventional KSR/bFGF/TGFβcontaining medium as specified in methods). […]
(§2) FIGS. 108A-108C—Signaling and functional characteristics of human naive pluripotency. […] After 14 days (2 passages), wells were analyzed by OCT4 immunostaining of direct detection of OCT4-GFP pluripotency reporter expression, to determine the relative percentage of undifferentiated pluripotent cells. […] After 20 days, colonies positive for OCT4 pluripotency markers were counted and normalized to colonies from cells electroporated with empty vector. […]

primed hESCs/hiPSCs = test: as above; format: cell-based; conditions: primed human cells
Description: as §1, §2

## C=C[C@@]1(C)CC(=O)[C@]2(O)[C@@]3(C)[C@@H](O)CCC(C)(C)[C@@H]3[C@H](O)[C@H](OC(C)=O)[C@@]2(C)O1 [forskolin, Forskolin]
Naive hESCs/hiPSCs
  response of pluripotent state: do not differentiate
Primed hESCs/hiPSCs
  response of pluripotent state: differentiated
